Source: patent US20200283832
A negative result means that nothing was seen under these conditions. Protein sequences can lack the tags named with them. The exact form of at least one protein or probe is not confirmed.

Columns and labels:
DpnI = target: T1, DpnI (UniProt P0A460); test: enzyme reaction in vitro; details: PS linkage between last two nt of oligo 2, 5' phosphate on oligo 3, BHQ-2 dT quencher, Mg acetate, 37 C, purified recombinant protein, protein details: New England Biolabs
T1 sequence (looked up, limits assumed): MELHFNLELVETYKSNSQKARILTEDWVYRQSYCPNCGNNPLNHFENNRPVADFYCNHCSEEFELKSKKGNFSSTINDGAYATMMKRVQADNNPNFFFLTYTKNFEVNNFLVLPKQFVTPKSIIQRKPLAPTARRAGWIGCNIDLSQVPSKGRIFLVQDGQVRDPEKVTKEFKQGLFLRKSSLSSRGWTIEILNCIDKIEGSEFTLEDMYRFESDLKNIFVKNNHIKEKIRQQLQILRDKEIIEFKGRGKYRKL

DpnII = target: T2, DpnII (UniProt P09357); test: enzyme reaction in vitro; details: PS linkage between last two nt of oligo 2, 5' phosphate on oligo 3, BHQ-2 dT quencher, Mg acetate, 37 C, purified recombinant protein, protein details: New England Biolabs
T2 sequence (looked up, limits assumed): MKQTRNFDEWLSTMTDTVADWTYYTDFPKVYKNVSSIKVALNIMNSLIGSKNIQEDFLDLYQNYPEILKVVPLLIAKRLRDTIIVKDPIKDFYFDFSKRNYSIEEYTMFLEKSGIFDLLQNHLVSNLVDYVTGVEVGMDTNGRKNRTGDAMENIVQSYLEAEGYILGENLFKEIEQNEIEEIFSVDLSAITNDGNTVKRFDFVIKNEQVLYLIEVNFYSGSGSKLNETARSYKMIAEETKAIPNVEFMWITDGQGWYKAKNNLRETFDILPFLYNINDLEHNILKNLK

| Sequence | activity on this sequence (DpnI; N6-methyl-dA in GATC and in the following ATCAGA of oligo 1b, 3' inverted dT on oligos 1b and 3, DpnI unable to cleave hemimethylated duplex, label: Atto 594 on dT) | activity on this sequence (DpnI; N6-methyl-dA in oligo 1b, captured dA is N6-methyl-dA, 3' inverted dT on oligos 1b and 3, iterative cleavage, Atto594 signal, label: Atto 594 on dT) | activity on this sequence (DpnII; N6-methyl-dA in oligo 1b, captured dA is N6-methyl-dA, 3' inverted dT on oligos 1b and 3, DpnII unable to cleave, label: Atto 594 on dT) | activity on this sequence (DpnI; 3' inverted dT on oligos 1a and 3, DpnI unable to cleave, label: Atto 700 on dT) | activity on this sequence (DpnII; 3' inverted dT on oligos 1a and 3, iterative cleavage, Atto700 signal, K acetate, label: Atto 700 on dT) | activity on this sequence (DpnII; captured dA is N6-methyl-dA, 3' inverted dT on oligos 1a and 3, DpnII unable to cleave, label: Atto 700 on dT) |
| --- | --- | --- | --- | --- | --- | --- |
| TTTCGAGTGAGGTCATGGTCGACAGGTGGGTTTAGATGATGATCAGATGTTGCCCTTAGC / TAAGGGCAACATCTGATCATCATCTAAACCCACCTGTCGAGT | not active | active | not active |  |  |  |
| TTTCGGGTGAGGTCATGGTCGACAGGTGGGTTTAGATGATGATCAGATGTTGCCCTTAGC / TAAGGGCAACATCTGATCATCATCTAAACCCACCTGTCGAGT |  |  |  | not active | active | not active |
